Experimental findings from patent US20040219615A1 are described below.

By UniProt entry, the sequences of proteins in these tests, tags left out. Where a name states a change or a piece, a line headed by the entry shows the natural chain unless it says otherwise.
UniProt Q92993: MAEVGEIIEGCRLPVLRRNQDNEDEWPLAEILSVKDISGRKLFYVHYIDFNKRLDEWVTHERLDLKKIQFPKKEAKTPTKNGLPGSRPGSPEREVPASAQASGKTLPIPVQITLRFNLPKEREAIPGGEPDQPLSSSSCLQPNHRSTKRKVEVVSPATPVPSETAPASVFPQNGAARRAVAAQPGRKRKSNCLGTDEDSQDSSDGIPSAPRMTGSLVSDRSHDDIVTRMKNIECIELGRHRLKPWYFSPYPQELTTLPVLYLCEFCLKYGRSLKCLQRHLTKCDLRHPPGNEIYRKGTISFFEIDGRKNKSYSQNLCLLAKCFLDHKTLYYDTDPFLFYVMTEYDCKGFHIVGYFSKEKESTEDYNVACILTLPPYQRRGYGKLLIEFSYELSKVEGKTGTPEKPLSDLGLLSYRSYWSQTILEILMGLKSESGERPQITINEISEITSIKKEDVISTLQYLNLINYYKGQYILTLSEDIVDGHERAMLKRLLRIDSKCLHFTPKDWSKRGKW
UniProt Q9Y6K9: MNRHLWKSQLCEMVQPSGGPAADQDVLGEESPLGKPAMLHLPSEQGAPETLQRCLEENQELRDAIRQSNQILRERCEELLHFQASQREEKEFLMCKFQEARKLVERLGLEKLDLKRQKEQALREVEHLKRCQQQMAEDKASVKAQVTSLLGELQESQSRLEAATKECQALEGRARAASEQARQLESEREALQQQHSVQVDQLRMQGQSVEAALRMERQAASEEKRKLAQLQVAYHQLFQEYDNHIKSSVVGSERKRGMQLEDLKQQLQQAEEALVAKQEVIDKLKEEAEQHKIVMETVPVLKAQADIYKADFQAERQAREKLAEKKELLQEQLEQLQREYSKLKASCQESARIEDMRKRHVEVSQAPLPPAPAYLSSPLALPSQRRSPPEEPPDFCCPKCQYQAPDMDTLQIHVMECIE

The target of the assay is TIP60 (histone acetyltransferase) (UniProt Q92993). As to the kind of experiment: immunoprecipitation from HeLa cells and yeast two-hybrid tests.

These are yes or no findings as the source states them, for the method shown. Some results given as binding are weak or reduced against the parent protein; the word gives no strength.

In the case of “RAP-2 (RIP-associated protein-2), full-length (from UniProt Q9Y6K9 1-419)”, the binding entry is “binds”.
